Several values for one entry are separate records, joined by “and”; a condition that tells them apart may be missing. Identical values can stand only once.
Test system: rat lenses
Experiment: Rat lens organ culture exposed to H2O2 with or without L-carnitine
Assay type: cell-based, Sprague-Dawley rats
Conditions: 500 μM H2O2 ± 300 μM L-carnitine; for Lens weight: 24 h incubation; for Water insoluble protein: % of total proteins; for Water insoluble protein / Acetyl carnitine / Free carnitine / Total carnitine / Glutathione: 24 h; for Acetyl carnitine / Free carnitine / Total carnitine / Glutathione: lens homogenate
Description: Four-month-old Sprague-Dawley rats were anesthesized with 5 mg/kg xylazine and 65 mg/kg ketamine, and decapitated. Immediately after, eyes were enucleated, extracted and placed in 2 ml of modified TC-199 medium. Lens integrity was assessed by measuring protein leached into the medium after 30-60 min of culture; damaged lenses were discarded. One lens of each pair was placed in culture medium with no H2O2 and used as a control. […] The controlateral lens of each pair was placed in medium and, after equilibration under 5% CO2 at 37° C., was exposed to 500 μM H2O2 in the absence or presence of 300 μM L-carnitine. After 24 h of incubation, morphological characteristics and changes were recorded, and the lenses were photographed. The incubated lenses were rinsed with saline solution, blotted on filter paper, weighed, and then immediately processed for biochemical analysis. To determine lactate dehydrogenase (LDH) leakage, lenses were incubated individually in each different medium, and the medium was harvested daily and saved for LDH analysis.
Decapsulated lenses were homogenized with disposable pestles and then sonicated in extract buffer (20 mM HEPES, 0.2 mM EDTA, 0.5 mM dithiothreitol, 450 mM NaCl, 25% glycerol, […] leupeptin, 0.5 μg/ml protinin, 0.5 mM phenylmethanesulfonyl fluoride) on ice. Aliquots of the homogenate from each of the incubated lenses were removed for GSH and L-carnitine analysis. The remainder was centrifuged for 25 min at 20,000×g to separate the supernatant from the pellet. The pellet was washed with 1.0 ml buffer and dried under nitrogen. This fraction was designated “water-insoluble fraction”. The supernatant fraction was dialyzed twice against 3 ml of 0.025 mol/l phosphate buffer, pH 7.4 for 48 h and lyophilized. This fraction was designated “water-soluble” fraction. The water-soluble and water-insoluble fractions were delipidated with 3.0 ml chloroform:methanol (2:1) for 16 h under shaking followed by centrifugation at 2,000 g for 5 min.
The water-insoluble proteins were suspended in 0.2 M N-ethylmorpholine acetate (pH 8.1). An aliquot (10%) was used to quantitate the amount of total protein. Samples were digested by the sequential addition of proteolytic enzymes (collagenase, pronase, aminopeptidase and carboxypeptidase A, carboxypeptidase B and carboxypeptidase y), directly to the reaction mixture at 37° C. in the presence of 0.02% sodium azide. After enzymatic digestion, the free N-(γ-glutamyl)lysine isopeptide cross-link was resolved by HPLC and quantitated by amino acid analysis (Hohl, D., et al (1991), J Biol Chem. 266, 6626-6636). In a related set of experiments, the isopeptide content of lenses was determined without prior extraction.
After a 24-h incubation with or without H2O2 in the presence or absence of L-carnitine, lenses were submitted to standard procedures for histologic analysis. For optical microscopy, lenses were removed from culture medium, immersed in fixative (neutral buffered formalin), dehydrated in ethanol, cleared in xylene, and embedded in paraffin wax for sectioning. Five micrometer sections were prepared and stained with hematoxylin and eosin. For scansion electron microscopy the lenses were fixed by immersion, for at least 24 h at room temperature, in a solution of 2.5% glutaraldehyde and 6% sucrose, buffered to pH 7.2 with 50 mM sodium cacodylate. Samples were dehydrated through a graded series of ethanol, critical point-dried using CO2, mounted on aluminium stubs, sputter-coated with gold, and examined with a Leica Stereoscan 440 microscope at a 3-7 kV acceleration voltage.
For transmission electron microscopy, the lenses were fixed as described above for the scansion electron microscopy procedure, postfixed in OsO4 buffered with 150 mM sodium-potassium phosphate (pH 7.4), embedded, sectioned, and stained for electron microscopy. They were examined at a JEOL 100B electron microscope.

For `OO` [H2O2, reference compound], the Lens weight was 47 ± 0.2 mg, the Water insoluble protein was 41% and 41 ± 1.9 % and the Acetyl carnitine was 6 ± 1 nmoles/g w-w. It also gave a Free carnitine of 27 ± 2 nmoles/g w-w and a Total carnitine of 36 ± 3 nmoles/g w-w.

With `C[N+](C)(C)C[C@H](O)CC(=O)[O-]` [L-carnitine] the Lens weight was “no differences in weight”, the Lens weight (listed as H2O2 + L-CAR) was 27 ± 0.9 mg and the Water insoluble protein was “the same as those observed in control lenses”. The Water insoluble protein (listed as H2O2 + L-CAR) was 5 ± 2.0%, the Acetyl carnitine was 37 ± 2 nmoles/g w-w and the Free carnitine was 151 ± 2 nmoles/g w-w. The Glutathione was “did not prevent the loss of GSH”, the Total carnitine was “maintained the carnitine concentration almost at the level found in control lenses” and the Glutathione (listed as H2O2 + L-CAR) was 2.71 ± 0.73 μmoles/g w-w. For the same molecule, the Total carnitine (listed as H2O2 + L-CAR) was 189 ± 2 nmoles/g w-w.

Reference: US7833977B2, “Use of L-Carnitine as stabilizing agent of proteins” (Sigma-Tau Industrie Farmaceutiche Riunite S.p.A., priority 2000, dated 2010)
